According to the supplement of paper PMC8728848:
This is one part of the list.

Legend:
Assay in all cases: glycan array binding signal (z-score within array); higher = stronger binding
Settings in all cases: glycan notation: IUPAC condensed, linker removed
[1] = biological target: GlcNAc(b1-2)Gal(b1-3)GalNAc
In short: (§1)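 The binding signal is a Z-score computed within each array and averaged over linkers. Arrays of the same protein sequence at different concentrations or buffers were also averaged together. Data originate from 3228 arrays in the Consortium for Functional Glycomics database, kept only where the protein sequence was available.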

[2] = biological target: GlcNAc(b1-2)Man(a1-3)[GlcNAc(b1-2)Man(a1-6)]Man(b1-4)GlcNAc(b1-4)GlcNAc
In short: as §1

[3] = biological target: GlcNAc(b1-2)Man(a1-3)[GlcNAc(b1-2)Man(a1-6)]Man(b1-4)GlcNAc(b1-4)[Fuc(a1-6)]GlcNAc
In short: as §1

[4] = biological target: GlcNAc(b1-2)Man(a1-3)[GlcNAc(b1-4)][GlcNAc(b1-2)Man(a1-6)]Man(b1-4)GlcNAc(b1-4)GlcNAc
In short: as §1

[5] = biological target: GlcNAc(b1-2)Man(a1-3)[GlcNAc(b1-4)][GlcNAc(b1-2)Man(a1-6)]Man(b1-4)GlcNAc(b1-4)[Fuc(a1-6)]GlcNAc
In short: as §1

[6] = biological target: GlcNAc(b1-2)[GlcNAc(b1-4)]Man(a1-3)[GlcNAc(b1-2)Man(a1-6)]Man(b1-4)GlcNAc(b1-4)GlcNAc
In short: as §1

[7] = biological target: GlcNAc(b1-2)[GlcNAc(b1-4)]Man(a1-3)[GlcNAc(b1-4)][GlcNAc(b1-2)Man(a1-6)]Man(b1-4)GlcNAc(b1-4)GlcNAc
In short: as §1

[8] = biological target: GlcNAc(b1-2)[GlcNAc(b1-4)]Man(a1-3)[GlcNAc(b1-4)][GlcNAc(b1-2)[GlcNAc(b1-6)]Man(a1-6)]Man(b1-4)GlcNAc(b1-4)GlcNAc
In short: as §1

[9] = biological target: GlcNAc(b1-2)[GlcNAc(b1-4)]Man(a1-3)[GlcNAc(b1-4)][GlcNAc(b1-2)[GlcNAc(b1-6)]Man(a1-6)]Man(b1-4)GlcNAc(b1-4)[Fuc(a1-6)]GlcNAc
In short: as §1

[10] = biological target: GlcNAc(b1-2)[GlcNAc(b1-6)]Man(a1-6)[GlcNAc(b1-2)Man(a1-3)]Man(b1-4)GlcNAc(b1-4)GlcNAc
In short: as §1

[11] = biological target: GlcNAc(b1-2)[GlcNAc(b1-6)]Man(a1-6)[GlcNAc(b1-2)Man(a1-3)]Man(b1-4)GlcNAc(b1-4)[Fuc(a1-6)]GlcNAc
In short: as §1

[12] = biological target: GlcNAc(b1-2)[GlcNAc(b1-6)]Man(a1-6)[GlcNAc(b1-4)][GlcNAc(b1-2)Man(a1-3)]Man(b1-4)GlcNAc(b1-4)GlcNAc
In short: as §1

[13] = biological target: GlcNAc(b1-3)Fuc
In short: as §1

[14] = biological target: GlcNAc(b1-3)Gal
In short: as §1

[15] = biological target: GlcNAc(b1-3)Gal(b1-3)GalNAc
In short: as §1

[16] = biological target: GlcNAc(b1-3)Gal(b1-4)Glc
In short: as §1

[17] = biological target: GlcNAc(b1-3)Gal(b1-4)GlcNAc
In short: as §1

[18] = biological target: GlcNAc(b1-3)Gal(b1-4)GlcNAc(b1-2)Man(a1-3)[GlcNAc(b1-3)Gal(b1-4)GlcNAc(b1-2)Man(a1-6)]Man(b1-4)GlcNAc(b1-4)GlcNAc
In short: as §1

[19] = biological target: GlcNAc(b1-3)Gal(b1-4)GlcNAc(b1-2)Man(a1-3)[GlcNAc(b1-3)Gal(b1-4)GlcNAc(b1-2)Man(a1-6)]Man(b1-4)GlcNAc(b1-4)[Fuc(a1-6)]GlcNAc
In short: as §1

[20] = biological target: GlcNAc(b1-3)Gal(b1-4)GlcNAc(b1-2)[GlcNAc(b1-3)Gal(b1-4)GlcNAc(b1-6)]Man(a1-6)[GlcNAc(b1-3)Gal(b1-4)GlcNAc(b1-2)Man(a1-3)]Man(b1-4)GlcNAc(b1-4)GlcNAc
In short: as §1

[21] = biological target: GlcNAc(b1-3)Gal(b1-4)GlcNAc(b1-3)Gal(b1-4)GlcNAc
In short: as §1

[22] = biological target: GlcNAc(b1-3)Gal(b1-4)GlcNAc(b1-3)Gal(b1-4)GlcNAc(b1-2)Man(a1-3)[GlcNAc(b1-3)Gal(b1-4)GlcNAc(b1-3)Gal(b1-4)GlcNAc(b1-2)Man(a1-6)]Man(b1-4)GlcNAc(b1-4)GlcNAc
In short: as §1

[23] = biological target: GlcNAc(b1-3)Gal(b1-4)GlcNAc(b1-3)Gal(b1-4)GlcNAc(b1-2)Man(a1-3)[GlcNAc(b1-3)Gal(b1-4)GlcNAc(b1-3)Gal(b1-4)GlcNAc(b1-2)Man(a1-6)]Man(b1-4)GlcNAc(b1-4)[Fuc(a1-6)]GlcNAc
In short: as §1

[24] = biological target: GlcNAc(b1-3)Gal(b1-4)GlcNAc(b1-3)Gal(b1-4)GlcNAc(b1-2)[GlcNAc(b1-3)Gal(b1-4)GlcNAc(b1-3)Gal(b1-4)GlcNAc(b1-6)]Man(a1-6)[GlcNAc(b1-3)Gal(b1-4)GlcNAc(b1-3)Gal(b1-4)GlcNAc(b1-2)Man(a1-3)]Man(b1-4)GlcNAc(b1-4)[Fuc(a1-6)]GlcNAc
In short: as §1

[25] = biological target: GlcNAc(b1-3)Gal(b1-4)GlcNAc(b1-3)Gal(b1-4)GlcNAc(b1-3)Gal(b1-4)GlcNAc(b1-2)Man(a1-3)[GlcNAc(b1-3)Gal(b1-4)GlcNAc(b1-3)Gal(b1-4)GlcNAc(b1-3)Gal(b1-4)GlcNAc(b1-2)Man(a1-6)]Man(b1-4)GlcNAc(b1-4)GlcNAc
In short: as §1

[26] = biological target: GlcNAc(b1-3)Gal(b1-4)GlcNAc(b1-3)Gal(b1-4)GlcNAc(b1-3)Gal(b1-4)GlcNAc(b1-2)Man(a1-3)[GlcNAc(b1-3)Gal(b1-4)GlcNAc(b1-3)Gal(b1-4)GlcNAc(b1-3)Gal(b1-4)GlcNAc(b1-2)Man(a1-6)]Man(b1-4)GlcNAc(b1-4)[Fuc(a1-6)]GlcNAc
In short: as §1

[27] = biological target: GlcNAc(b1-3)Gal(b1-4)GlcNAc(b1-3)Gal(b1-4)GlcNAc(b1-3)Gal(b1-4)GlcNAc(b1-2)[GlcNAc(b1-3)Gal(b1-4)GlcNAc(b1-3)Gal(b1-4)GlcNAc(b1-3)Gal(b1-4)GlcNAc(b1-6)]Man(a1-6)[GlcNAc(b1-3)Gal(b1-4)GlcNAc(b1-3)Gal(b1-4)GlcNAc(b1-3)Gal(b1-4)GlcNAc(b1-2)Man(a1-3)]Man(b1-4)GlcNAc(b1-4)[Fuc(a1-6)]GlcNAc
In short: as §1

[28] = biological target: GlcNAc(b1-3)Gal(b1-4)GlcNAc(b1-3)Gal(b1-4)GlcNAc(b1-3)Gal(b1-4)GlcNAc(b1-3)Gal(b1-4)GlcNAc(b1-2)Man(a1-3)[GlcNAc(b1-3)Gal(b1-4)GlcNAc(b1-3)Gal(b1-4)GlcNAc(b1-3)Gal(b1-4)GlcNAc(b1-3)Gal(b1-4)GlcNAc(b1-2)Man(a1-6)]Man(b1-4)GlcNAc(b1-4)GlcNAc
In short: as §1

[29] = biological target: GlcNAc(b1-3)Gal(b1-4)GlcNAc(b1-3)Gal(b1-4)GlcNAc(b1-3)Gal(b1-4)GlcNAc(b1-3)Gal(b1-4)GlcNAc(b1-2)Man(a1-3)[GlcNAc(b1-3)Gal(b1-4)GlcNAc(b1-3)Gal(b1-4)GlcNAc(b1-3)Gal(b1-4)GlcNAc(b1-3)Gal(b1-4)GlcNAc(b1-2)Man(a1-6)]Man(b1-4)GlcNAc(b1-4)[Fuc(a1-6)]GlcNAc
In short: as §1

[30] = biological target: GlcNAc(b1-3)Gal(b1-4)GlcNAc(b1-3)Gal(b1-4)GlcNAc(b1-3)Gal(b1-4)GlcNAc(b1-3)Gal(b1-4)GlcNAc(b1-2)[GlcNAc(b1-3)Gal(b1-4)GlcNAc(b1-3)Gal(b1-4)GlcNAc(b1-3)Gal(b1-4)GlcNAc(b1-3)Gal(b1-4)GlcNAc(b1-6)]Man(a1-6)[GlcNAc(b1-3)Gal(b1-4)GlcNAc(b1-3)Gal(b1-4)GlcNAc(b1-3)Gal(b1-4)GlcNAc(b1-3)Gal(b1-4)GlcNAc(b1-2)Man(a1-3)]Man(b1-4)GlcNAc(b1-4)[Fuc(a1-6)]GlcNAc
In short: as §1

[31] = biological target: GlcNAc(b1-3)Gal(b1-4)GlcNAc(b1-3)Gal(b1-4)GlcNAc(b1-3)GalNAc
In short: as §1

[32] = biological target: GlcNAc(b1-3)Gal(b1-4)GlcNAc(b1-3)GalNAc
In short: as §1

[33] = biological target: GlcNAc(b1-3)Gal(b1-4)GlcNAc(b1-3)[GlcNAc(b1-3)Gal(b1-4)GlcNAc(b1-3)]GalNAc
In short: as §1

[34] = biological target: GlcNAc(b1-3)Gal(b1-4)GlcNAc(b1-6)[Gal(b1-3)]GalNAc
In short: as §1

[35] = biological target: GlcNAc(b1-3)Gal(b1-4)GlcNAc(b1-6)[GlcNAc(b1-3)Gal(b1-3)]GalNAc
In short: as §1

[36] = biological target: GlcNAc(b1-3)Gal(b1-4)GlcNAc(b1-6)[GlcNAc(b1-3)]Gal(b1-4)GlcNAc
In short: as §1

[37] = biological target: GlcNAc(b1-3)GalNAc
In short: as §1

B1: SJCP1531 (Schistosoma japonicum) (protein)
chain: MFKVRIINLVNISTVLLLINLLQTKSQVNVEQLVTVLEVNIKAQLKNKTTEVLVEWNPLYQDNSMPEYRKLLDETCKLFLPFVNEKVPPSTYGGECTNANFSEAPQDGSYSRVNAELRLIYKYSDNPQIQTDRLQDDLNDREEFITSESSFVAYNPKFTVKIEKLFIPISESQTTPPPTTAKNDASKKDDDDNGGEDSKAPIDTFAMTASGNKGKKDDDDNGGEDSKAPIDTFAMTASGSKDERSTWTIIGIITLVVLIFVVIGGGITVFVKRC
glycan array binding signal (z-score) [1]: -1.08 | glycan array binding signal (z-score) [2]: -0.485 | glycan array binding signal (z-score) [3]: 1.41 | glycan array binding signal (z-score) [4]: -0.08 | glycan array binding signal (z-score) [5]: -0.027 | glycan array binding signal (z-score) [6]: -1.18 | glycan array binding signal (z-score) [7]: -0.933 | glycan array binding signal (z-score) [8]: 0.431 | glycan array binding signal (z-score) [9]: 0.165 | glycan array binding signal (z-score) [10]: -1.11 | glycan array binding signal (z-score) [11]: 0.501 | glycan array binding signal (z-score) [12]: -0.734 | glycan array binding signal (z-score) [13]: -0.112 | glycan array binding signal (z-score) [14]: -2.21 | glycan array binding signal (z-score) [15]: -0.173 | glycan array binding signal (z-score) [16]: 0.828 | glycan array binding signal (z-score) [17]: 0.345 | glycan array binding signal (z-score) [18]: 0.043 | glycan array binding signal (z-score) [19]: -0.143 | glycan array binding signal (z-score) [20]: 0.31 | glycan array binding signal (z-score) [21]: -0.766 | glycan array binding signal (z-score) [22]: 1.81 | glycan array binding signal (z-score) [23]: 1.04 | glycan array binding signal (z-score) [24]: 1.72 | glycan array binding signal (z-score) [25]: -0.047 | glycan array binding signal (z-score) [26]: 0.944 | glycan array binding signal (z-score) [27]: 1.84 | glycan array binding signal (z-score) [28]: 0.067 | glycan array binding signal (z-score) [29]: 1.01 | glycan array binding signal (z-score) [30]: 1.4 | glycan array binding signal (z-score) [31]: -0.547 | glycan array binding signal (z-score) [32]: -0.655 | glycan array binding signal (z-score) [33]: -0.117 | glycan array binding signal (z-score) [34]: -0.637 | glycan array binding signal (z-score) [35]: -1.05 | glycan array binding signal (z-score) [36]: -1.27 | glycan array binding signal (z-score) [37]: -1.42
